Experimental data from article PMC9995352.
No constants are given. Whether binding was seen depends on the method and setting. Binding seen in cells or lysates may run through a third protein. Some binding calls cover weakened binding; strength is not graded here.

Chains of the proteins cited; added tags and fusions are not shown.
UniProt Q02248: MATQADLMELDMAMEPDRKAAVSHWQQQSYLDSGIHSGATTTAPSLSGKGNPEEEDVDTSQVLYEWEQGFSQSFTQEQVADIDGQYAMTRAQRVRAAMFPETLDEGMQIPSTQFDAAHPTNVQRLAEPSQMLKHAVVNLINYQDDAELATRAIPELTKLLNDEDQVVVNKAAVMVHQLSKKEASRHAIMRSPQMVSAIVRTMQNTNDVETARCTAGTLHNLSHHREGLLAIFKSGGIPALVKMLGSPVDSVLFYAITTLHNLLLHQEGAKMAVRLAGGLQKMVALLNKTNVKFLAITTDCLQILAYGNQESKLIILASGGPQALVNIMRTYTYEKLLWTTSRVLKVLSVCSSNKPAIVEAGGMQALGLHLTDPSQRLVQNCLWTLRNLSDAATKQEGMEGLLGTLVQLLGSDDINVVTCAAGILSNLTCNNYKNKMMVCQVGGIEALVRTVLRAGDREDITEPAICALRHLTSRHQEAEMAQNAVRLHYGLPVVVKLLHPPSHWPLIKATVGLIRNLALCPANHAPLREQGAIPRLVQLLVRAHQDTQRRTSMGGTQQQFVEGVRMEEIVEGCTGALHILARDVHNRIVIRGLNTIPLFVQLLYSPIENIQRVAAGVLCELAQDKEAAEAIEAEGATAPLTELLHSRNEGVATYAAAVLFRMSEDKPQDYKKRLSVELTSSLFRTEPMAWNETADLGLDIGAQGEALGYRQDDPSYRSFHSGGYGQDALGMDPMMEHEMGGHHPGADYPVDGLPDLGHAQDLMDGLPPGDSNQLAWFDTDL

T1: Vang-like 2 (Vangl2) planar cell polarity protein (mouse (endogenous in E9.5 embryonic neural tube)) (UniProt Q91ZD4)
T1 sequence: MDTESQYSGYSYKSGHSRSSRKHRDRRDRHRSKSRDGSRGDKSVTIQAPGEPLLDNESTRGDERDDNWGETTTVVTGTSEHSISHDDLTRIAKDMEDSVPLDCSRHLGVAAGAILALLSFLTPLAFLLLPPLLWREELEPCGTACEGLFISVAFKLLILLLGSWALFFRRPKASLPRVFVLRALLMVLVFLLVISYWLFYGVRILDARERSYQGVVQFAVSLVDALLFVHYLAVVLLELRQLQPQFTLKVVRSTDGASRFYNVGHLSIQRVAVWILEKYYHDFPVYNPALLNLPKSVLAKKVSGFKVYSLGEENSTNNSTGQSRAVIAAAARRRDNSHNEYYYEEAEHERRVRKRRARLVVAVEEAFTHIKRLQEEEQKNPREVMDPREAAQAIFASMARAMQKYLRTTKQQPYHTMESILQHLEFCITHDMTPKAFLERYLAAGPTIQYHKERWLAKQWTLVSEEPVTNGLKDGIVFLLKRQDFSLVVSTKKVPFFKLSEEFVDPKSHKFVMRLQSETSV

T2: Vang-like 2 (Vangl2) planar cell polarity protein (mouse (endogenous in E9.5 embryonic neural tube)), Q91ZD4
T2 chain: T1 sequence

B1: N-cadherin (cadherin 2, CDH2), P15116 160-906 (protein)
chain: DWVIPPINLPENSRGPFPQELVRIRSDRDKNLSLRYSVTGPGADQPPTGIFIINPISGQLSVTKPLDRELIARFHLRAHAVDINGNQVENPIDIVINVIDMNDNRPEFLHQVWNGSVPEGSKPGTYVMTVTAIDADDPNALNGMLRYRILSQAPSTPSPNMFTINNETGDIITVAAGLDREKVQQYTLIIQATDMEGNPTYGLSNTATAVITVTDVNDNPPEFTAMTFYGEVPENRVDVIVANLTVTDKDQPHTPAWNAAYRISGGDPTGRFAILTDPNSNDGLVTVVKPIDFETNRMFVLTVAAENQVPLAKGIQHPPQSTATVSVTVIDVNENPYFAPNPKIIRQEEGLHAGTMLTTLTAQDPDRYMQQNIRYTKLSDPANWLKIDPVNGQITTIAVLDRESPNVKNNIYNATFLASDNGIPPMSGTGTLQIYLLDINDNAPQVLPQEAETCETPEPNSINITALDYDIDPNAGPFAFDLPLSPVTIKRNWTINRLNGDFAQLNLKIKFLEAGIYEVPIIITDSGNPPKSNISILRVKVCQCDSNGDCTDVDRIVGAGLGTGAIIAILLCIIILLILVLMFVVWMKRRDKERQAKQLLIDPEDDVRDNILKYDEEGGGEEDQDYDLSQLQQPDTVEPDAIKPVGIRRLDERPIHAEPQYPVRSAAPHPGDIGDFINEGLKAADNDPTAPPYDSLLVFDYEGSGSTAGSLSSLNSSSSGGDQDYDYLNDWGPRFKKLADMYGGGDD

Key:
[1] = target: T1, Vang-like 2 (Vangl2) planar cell polarity protein (mouse (endogenous in E9.5 embryonic neural tube)); assay: co-IP; immunoprecipitation with goat anti-Vangl2 antibodies (control: normal goat IgG) from lysates of neural tubes of E9.5 ICR mouse embryos; lysis in PBS with 1% NP-40 and 10 μg/ml aprotinin; western blot of input (1.7%) and IP (~50%)
[2] = target: T2, Vang-like 2 (Vangl2) planar cell …; assay: as above; settings: remark: other sources report otherwise

Molecule	binding [1]	binding [2]
β-catenin (from UniProt Q02248 1-781)	no binding	–
B1	–	binds
